Results are given in words; binding and its absence hold for the method and conditions named. Binding seen in cells or lysates may run through a third protein. Some results given as binding are weak or reduced against the parent protein; the word gives no strength. Sequences can lack the tags named with a protein. Each block holds one molecule with its values, some of them ahead of it.
Target: T1, V5-tagged EEPD1 (Exonuclease/Endonuclease/Phosphatase Domain-1) (human) (UniProt Q7L9B9)
T1 sequence: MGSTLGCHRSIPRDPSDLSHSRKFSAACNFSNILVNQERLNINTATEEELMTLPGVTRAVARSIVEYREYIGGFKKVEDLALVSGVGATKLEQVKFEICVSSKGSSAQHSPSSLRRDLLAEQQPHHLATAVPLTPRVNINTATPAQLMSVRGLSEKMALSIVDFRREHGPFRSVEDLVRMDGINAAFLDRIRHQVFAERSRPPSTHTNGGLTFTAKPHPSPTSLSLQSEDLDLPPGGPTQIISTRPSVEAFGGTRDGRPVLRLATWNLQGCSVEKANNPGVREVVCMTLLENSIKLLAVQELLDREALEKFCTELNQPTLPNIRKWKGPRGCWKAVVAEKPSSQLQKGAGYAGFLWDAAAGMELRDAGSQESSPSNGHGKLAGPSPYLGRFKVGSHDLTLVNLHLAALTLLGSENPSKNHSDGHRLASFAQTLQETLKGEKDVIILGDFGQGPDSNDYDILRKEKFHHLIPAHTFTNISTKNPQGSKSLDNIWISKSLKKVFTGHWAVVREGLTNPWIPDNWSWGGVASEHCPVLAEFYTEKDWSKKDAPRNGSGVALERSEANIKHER
Test: co-IP; V5 mouse antibody cross-linked to protein A/G magnetic beads, incubated with lysate (0.8-1.2 mg) of HEK-293 cells overexpressing V5-tagged EEPD1, 1 h at RT; in the presence of DNase; with or without replication stress

Chains of the proteins cited; added tags and fusions are not shown.
UniProt P54132: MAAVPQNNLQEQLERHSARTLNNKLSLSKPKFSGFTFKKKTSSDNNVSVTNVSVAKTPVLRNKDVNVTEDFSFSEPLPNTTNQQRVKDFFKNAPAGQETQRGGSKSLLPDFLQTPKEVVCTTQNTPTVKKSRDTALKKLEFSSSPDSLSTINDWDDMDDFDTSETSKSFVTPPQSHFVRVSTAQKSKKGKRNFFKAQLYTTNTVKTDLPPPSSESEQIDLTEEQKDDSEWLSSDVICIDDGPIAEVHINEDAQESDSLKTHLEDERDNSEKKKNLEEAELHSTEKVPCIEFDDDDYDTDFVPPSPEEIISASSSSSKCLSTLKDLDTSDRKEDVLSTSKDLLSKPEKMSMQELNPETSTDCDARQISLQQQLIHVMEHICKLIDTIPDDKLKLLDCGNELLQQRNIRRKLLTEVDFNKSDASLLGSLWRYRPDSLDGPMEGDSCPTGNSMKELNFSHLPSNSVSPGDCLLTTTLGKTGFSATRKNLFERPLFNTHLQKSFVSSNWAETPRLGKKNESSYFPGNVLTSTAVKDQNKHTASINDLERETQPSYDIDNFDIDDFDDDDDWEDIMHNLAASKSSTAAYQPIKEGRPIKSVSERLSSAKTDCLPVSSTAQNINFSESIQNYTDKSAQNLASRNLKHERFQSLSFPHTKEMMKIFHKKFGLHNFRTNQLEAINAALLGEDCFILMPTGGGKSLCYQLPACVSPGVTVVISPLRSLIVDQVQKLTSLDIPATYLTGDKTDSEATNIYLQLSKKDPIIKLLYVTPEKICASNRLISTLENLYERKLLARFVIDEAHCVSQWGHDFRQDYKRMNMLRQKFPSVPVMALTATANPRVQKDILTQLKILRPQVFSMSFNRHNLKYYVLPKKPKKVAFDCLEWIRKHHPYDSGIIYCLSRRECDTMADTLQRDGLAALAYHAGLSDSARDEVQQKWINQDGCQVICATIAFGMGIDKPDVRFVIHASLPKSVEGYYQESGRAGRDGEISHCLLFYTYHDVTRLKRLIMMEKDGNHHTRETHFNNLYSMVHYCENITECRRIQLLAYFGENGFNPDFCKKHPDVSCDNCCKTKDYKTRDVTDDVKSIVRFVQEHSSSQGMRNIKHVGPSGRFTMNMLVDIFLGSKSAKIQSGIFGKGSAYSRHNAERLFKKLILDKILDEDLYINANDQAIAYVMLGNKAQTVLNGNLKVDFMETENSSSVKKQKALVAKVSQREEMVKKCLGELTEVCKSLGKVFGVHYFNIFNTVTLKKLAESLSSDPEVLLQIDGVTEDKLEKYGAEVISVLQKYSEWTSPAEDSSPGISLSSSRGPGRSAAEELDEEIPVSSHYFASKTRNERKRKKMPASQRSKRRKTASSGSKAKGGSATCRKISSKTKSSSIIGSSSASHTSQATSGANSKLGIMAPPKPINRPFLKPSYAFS
UniProt Q9UQ84: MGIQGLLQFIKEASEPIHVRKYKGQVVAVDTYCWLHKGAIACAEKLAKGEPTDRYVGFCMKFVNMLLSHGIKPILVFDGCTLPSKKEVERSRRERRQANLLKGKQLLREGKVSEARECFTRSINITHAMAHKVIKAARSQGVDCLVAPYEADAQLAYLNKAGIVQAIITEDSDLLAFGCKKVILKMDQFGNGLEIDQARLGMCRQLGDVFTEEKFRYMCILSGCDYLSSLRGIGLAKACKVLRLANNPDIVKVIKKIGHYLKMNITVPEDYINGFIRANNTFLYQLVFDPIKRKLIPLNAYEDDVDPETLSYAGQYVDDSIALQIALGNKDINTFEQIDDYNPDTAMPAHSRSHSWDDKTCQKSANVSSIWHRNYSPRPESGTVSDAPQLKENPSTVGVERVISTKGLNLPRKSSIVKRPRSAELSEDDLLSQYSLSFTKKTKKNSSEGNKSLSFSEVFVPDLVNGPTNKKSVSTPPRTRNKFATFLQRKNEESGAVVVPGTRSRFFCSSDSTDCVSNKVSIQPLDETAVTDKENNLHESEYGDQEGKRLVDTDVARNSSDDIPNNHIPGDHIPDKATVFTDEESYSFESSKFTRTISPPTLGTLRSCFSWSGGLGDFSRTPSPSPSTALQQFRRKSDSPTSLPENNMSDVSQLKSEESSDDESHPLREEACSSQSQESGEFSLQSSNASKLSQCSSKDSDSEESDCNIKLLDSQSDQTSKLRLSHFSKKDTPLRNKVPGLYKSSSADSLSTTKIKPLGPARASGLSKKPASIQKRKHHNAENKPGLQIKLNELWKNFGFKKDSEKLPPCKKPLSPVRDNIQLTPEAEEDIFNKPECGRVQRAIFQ
UniProt P15927: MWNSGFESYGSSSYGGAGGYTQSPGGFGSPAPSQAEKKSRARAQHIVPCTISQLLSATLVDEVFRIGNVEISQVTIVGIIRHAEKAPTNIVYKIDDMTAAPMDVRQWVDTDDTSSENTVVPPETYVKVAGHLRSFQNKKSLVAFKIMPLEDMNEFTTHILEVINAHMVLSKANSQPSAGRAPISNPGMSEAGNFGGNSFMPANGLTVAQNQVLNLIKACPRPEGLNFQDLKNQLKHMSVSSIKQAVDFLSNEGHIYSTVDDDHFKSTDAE

Molecule: BLM (from UniProt P54132 1-1417)
binding: binds

Molecule: Exo1 (from UniProt Q9UQ84 1-846)
binding: binds

Continued, values first:

binding: binds
Molecule: RPA32 (from UniProt P15927 1-270)

binding: no binding
B1: Dna2 (protein, UniProt P51530 1-1060)
chain: MEQLNELELLMEKSFWEEAELPAELFQKKVVASFPRTVLSTGMDNRYLVLAVNTVQNKEGNCEKRLVITASQSLENKELCILRNDWCSVPVEPGDIIHLEGDCTSDTWIIDKDFGYLILYPDMLISGTSIASSIRCMRRAVLSETFRSSDPATRQMLIGTVLHEVFQKAINNSFAPEKLQELAFQTIQEIRHLKEMYRLNLSQDEIKQEVEDYLPSFCKWAGDFMHKNTSTDFPQMQLSLPSDNSKDNSTCNIEVVKPMDIEESIWSPRFGLKGKIDVTVGVKIHRGYKTKYKIMPLELKTGKESNSIEHRSQVVLYTLLSQERRADPEAGLLLYLKTGQMYPVPANHLDKRELLKLRNQMAFSLFHRISKSATRQKTQLASLPQIIEEEKTCKYCSQIGNCALYSRAVEQQMDCSSVPIVMLPKIEEETQHLKQTHLEYFSLWCLMLTLESQSKDNKKNHQNIWLMPASEMEKSGSCIGNLIRMEHVKIVCDGQYLHNFQCKHGAIPVTNLMAGDRVIVSGEERSLFALSRGYVKEINMTTVTCLLDRNLSVLPESTLFRLDQEEKNCDIDTPLGNLSKLMENTFVSKKLRDLIIDFREPQFISYLSSVLPHDAKDTVACILKGLNKPQRQAMKKVLLSKDYTLIVGMPGTGKTTTICTLVRILYACGFSVLLTSYTHSAVDNILLKLAKFKIGFLRLGQIQKVHPAIQQFTEQEICRSKSIKSLALLEELYNSQLIVATTCMGINHPIFSRKIFDFCIVDEASQISQPICLGPLFFSRRFVLVGDHQQLPPLVLNREARALGMSESLFKRLEQNKSAVVQLTVQYRMNSKIMSLSNKLTYEGKLECGSDKVANAVINLRHFKDVKLELEFYADYSDNPWLMGVFEPNNPVCFLNTDKVPAPEQVEKGGVSNVTEAKLIVFLTSIFVKAGCSPSDIGIIAPYRQQLKIINDLLARSIGMVEVNTVDKYQGRDKSIVLVSFVRSNKDGTVGELLKDWRRLNVAITRAKHKLILLGCVPSLNCYPPLEKLLNHLNSEKLIIDLPSREHESLCHILGDFQRE
